For at least one compound, name, drawing or mass did not settle the structure.
Assay: ACEK effect (DEP, ACEO, ACET) on drug particles over the inductively powered IDE, observed by light microscopy
Assay type: physicochemical
From the text: In order to study the functionality of the patch in terms of a demodulation circuit and ACEK effect, a very simple set-up was constructed which is shown in FIG. 2C. The experimental set-up includes the dental patch, an optical microscope, AC waveform generators, a digital oscilloscope and some probe connectors. A microchamber was sealed over the IDE to hold the solution (FIG. 2C). […] The movement of particles was observed by an optical microscope NIKON ECLIPSE LV100 (Nikon Instruments, Inc., Melville, New York, United States of America) and the images from the microscope were acquired by a Roper Scientific (Tucson, Arizona, United States of America) digital camera and subsequently transferred to a computer. An AM signal with the amplitude of 10 V was applied to the primary coil. The AM signal applied to the primary coil was generated by two Agilent Arbitrary Waveform Generators (model 33220A). The carrier signal frequency was 8 MHz. The separation between primary and secondary coil is 10 mm. An Agilent Mixed Signal Oscilloscope (model MSO6012A) was used to record the demodulated signal. […] The frequency of the modulating signal was continuously swept in order to find an appropriate frequency at which ACEK effect occurs. […] The ACEK effect on Tetracycline, Acetaminophen, Benzocaine and Lidocaine was studied.

[1] = particles 1-5 μm in DI water on IDE, benzocaine and lidocaine at higher electric fields

CN(C)[C@@H]1C(O)=C(C(N)=O)C(=O)[C@@]2(O)C(O)=C3C(=O)c4c(O)cccc4[C@@](C)(O)[C@H]3C[C@@H]12 [tetracycline]
negative DEP (nDEP) detection (any frequency range, DI water): No negative DEP (nDEP) was detected
frequency range at which ACEO was observed [1]: 500 Hz to 10 KHz
frequency range at which positive DEP (pDEP) was observed [1]: 500 Hz to 10 KHz
frequency range at which AC electrothermal (ACET) effect with low velocity was observed (tapered off to zero at 5 MH): 100 KHz to 1 MH

Source: patent publication US20260166313A1, “WIRELESS PATCH SYSTEM FOR TRANSDERMAL, TRANSMUCOSAL AND DENTAL ELECTRICAL DRUG DELIVERY” (priority 2015, published 2026)
